The test has as its target PCDH15_(1EC), protocadherin-15 EC11-CR domains (residues 1-30 and 1145-1462) (Mus musculus) (UniProt Q99PJ1). The test can be described thus: tandem affinity co-purification (Strep-Tactin, then TALON) + SEC; co-expressed in HEK293 tsa201; lysed in 1% digitonin; Strep-Tactin elution removes free His-tagged PCDH15, TALON removes free strep-tagged LHFPL5; SEC in 20 mM Tris pH 8.0, 150 mM NaCl, 0.07% digitonin.

Chains of the proteins cited; added tags and fusions are not shown. Lines headed by an entry give the natural chain unless they say otherwise; changes in a name come on top. A line that says so, or that is headed by a name, gives the form on record, which may keep a tag or linker. Residues count along the entry.
PCDH15_(1EC), protocadherin-15 EC11-CR domains (residues 1-30 and 1145-1462) (Q99PJ1, form named): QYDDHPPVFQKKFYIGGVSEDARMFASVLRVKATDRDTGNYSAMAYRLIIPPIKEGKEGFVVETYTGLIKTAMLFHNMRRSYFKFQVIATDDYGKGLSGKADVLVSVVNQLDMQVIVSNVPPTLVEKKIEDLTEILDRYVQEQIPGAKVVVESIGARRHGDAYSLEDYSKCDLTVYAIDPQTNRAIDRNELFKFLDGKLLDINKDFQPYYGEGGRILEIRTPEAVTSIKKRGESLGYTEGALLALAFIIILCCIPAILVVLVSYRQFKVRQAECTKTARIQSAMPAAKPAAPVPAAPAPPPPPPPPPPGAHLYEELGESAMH

These are yes or no findings as the source states them, for the method shown. Some binding calls cover weakened binding; strength is not graded here. Where a sequence is shown, tags or fusion partners need not be part of it.

B1: recombinant lipoma HMGIC fusion partner-like protein 5 (LHFPL5), residues 2-219 (protein, UniProt Q4KL25 2-219)
chain: VKLLPAQEAAKIYHTNYVRNSRAVGVMWGTLTICFSVLVMALFIQPYWIGDSVSTPQAGYFGLFSYCVGNVLSSELICKGGPLDFSSIPSRAFKTAMFFVALAMFLIIGSIICFSLFFVCNTATVYKICAWMQLAAATGLMIGCLVYPDGWDSSEVRRMCGEQTGKYTLGHCTIRWAFMLAILSIGDALILSFLAFVLGYRQDKLLPDDYKADGNEEV
On to B1, for which the binding entry is reported as “binds”.
